The target of assay [1] is BACH2, endogenous in mouse splenic Treg cells (mouse (endogenous in splenic Treg cells)) (UniProt P97303). As to the kind of experiment: co-IP; lysates of Senp3+/+Foxp3-Cre and Senp3fl/flFoxp3-Cre splenic Treg cells stimulated with anti-CD3 and anti-CD28 for 24 h; IP with anti-BACH2 antibody or control Ig; SENP3 detected by immunoblotting; RIPA buffer. On the technique in general: A western blot detects proteins with antibodies after separation by electrophoresis.

Protein sequences, listed by entry. Tags and fused reporters are not part of them.
UniProt P97303: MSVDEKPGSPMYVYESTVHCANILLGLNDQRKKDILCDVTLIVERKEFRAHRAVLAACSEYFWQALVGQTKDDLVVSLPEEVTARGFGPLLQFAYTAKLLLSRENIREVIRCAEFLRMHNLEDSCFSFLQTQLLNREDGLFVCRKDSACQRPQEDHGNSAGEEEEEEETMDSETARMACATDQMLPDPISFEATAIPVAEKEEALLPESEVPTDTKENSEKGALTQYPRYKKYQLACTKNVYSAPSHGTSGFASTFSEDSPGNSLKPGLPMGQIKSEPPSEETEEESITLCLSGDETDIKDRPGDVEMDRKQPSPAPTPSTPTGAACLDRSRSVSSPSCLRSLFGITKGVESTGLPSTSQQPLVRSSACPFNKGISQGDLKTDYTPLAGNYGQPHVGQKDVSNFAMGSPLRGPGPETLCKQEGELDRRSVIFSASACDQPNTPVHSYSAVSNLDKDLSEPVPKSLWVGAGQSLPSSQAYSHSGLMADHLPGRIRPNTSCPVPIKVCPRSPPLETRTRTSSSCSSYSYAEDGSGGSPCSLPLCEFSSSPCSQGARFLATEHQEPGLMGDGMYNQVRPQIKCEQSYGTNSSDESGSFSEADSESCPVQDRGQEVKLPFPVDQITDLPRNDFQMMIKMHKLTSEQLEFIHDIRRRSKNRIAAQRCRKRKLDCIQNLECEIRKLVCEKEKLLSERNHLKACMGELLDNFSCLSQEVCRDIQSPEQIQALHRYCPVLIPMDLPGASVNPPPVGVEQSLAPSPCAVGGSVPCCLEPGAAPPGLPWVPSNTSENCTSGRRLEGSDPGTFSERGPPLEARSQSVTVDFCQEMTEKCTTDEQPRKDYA
UniProt Q9EP97: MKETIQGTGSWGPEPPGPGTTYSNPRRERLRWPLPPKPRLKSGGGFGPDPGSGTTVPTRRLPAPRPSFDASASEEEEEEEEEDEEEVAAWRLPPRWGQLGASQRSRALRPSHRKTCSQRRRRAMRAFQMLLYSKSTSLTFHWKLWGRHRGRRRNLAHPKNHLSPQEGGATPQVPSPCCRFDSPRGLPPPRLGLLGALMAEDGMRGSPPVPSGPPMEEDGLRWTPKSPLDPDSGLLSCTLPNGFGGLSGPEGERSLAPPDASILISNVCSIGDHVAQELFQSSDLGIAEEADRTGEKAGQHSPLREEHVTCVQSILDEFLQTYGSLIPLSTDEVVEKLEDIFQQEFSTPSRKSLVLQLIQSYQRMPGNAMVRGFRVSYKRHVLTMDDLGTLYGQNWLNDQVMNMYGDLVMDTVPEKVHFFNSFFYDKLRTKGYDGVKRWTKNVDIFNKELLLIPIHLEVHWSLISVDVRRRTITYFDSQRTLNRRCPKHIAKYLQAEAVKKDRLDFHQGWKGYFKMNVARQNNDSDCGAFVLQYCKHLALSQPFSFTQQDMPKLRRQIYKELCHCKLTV
UniProt Q9H4L4: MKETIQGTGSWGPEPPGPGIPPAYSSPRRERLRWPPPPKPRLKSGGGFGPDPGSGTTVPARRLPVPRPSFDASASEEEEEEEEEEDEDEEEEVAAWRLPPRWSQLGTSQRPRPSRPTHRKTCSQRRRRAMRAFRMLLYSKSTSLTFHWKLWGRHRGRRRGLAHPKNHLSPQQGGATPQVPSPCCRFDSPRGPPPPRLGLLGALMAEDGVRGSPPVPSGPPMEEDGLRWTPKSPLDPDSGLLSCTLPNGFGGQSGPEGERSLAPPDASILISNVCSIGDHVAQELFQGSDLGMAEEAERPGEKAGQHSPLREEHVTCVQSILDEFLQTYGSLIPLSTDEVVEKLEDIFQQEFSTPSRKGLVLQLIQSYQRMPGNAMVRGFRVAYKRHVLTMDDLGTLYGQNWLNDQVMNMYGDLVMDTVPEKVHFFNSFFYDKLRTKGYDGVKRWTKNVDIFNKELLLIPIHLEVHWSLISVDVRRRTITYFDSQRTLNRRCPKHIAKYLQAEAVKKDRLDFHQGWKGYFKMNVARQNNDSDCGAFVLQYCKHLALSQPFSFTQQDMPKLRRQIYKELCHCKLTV

The target of assay [2] is Flag-tagged mouse BACH2 (mouse) (UniProt P97303). As to the kind of experiment: co-IP; HEK293T (legend: HEK293) cells transiently transfected with SENP3 and BACH2 expression vectors; lysed in RIPA buffer (50 mM Tris-HCl pH 7.5, 135 mM NaCl, 1% NP-40, 0.5% sodium DOC, 1 mM EDTA, 10% glycerol); IP with protein A/G-agarose beads, immunoblotting.

Results are given in words; binding and its absence hold for the method and conditions named. In cells and extracts the contact can be indirect. Some results given as binding are weak or reduced against the parent protein; the word gives no strength.

This note sets out measurements from publication PMC6082899.

For “SENP3, endogenous in mouse splenic Treg cells (from UniProt Q9EP97 1-568) (enzyme)”, the binding result in assay [1] was “binds”.
As for “SUMO-specific protease 3 (SENP3), expressed from the pEGFP-C1 vector (from UniProt Q9H4L4 1-574) (enzyme)”, the binding entry in assay [2] was “binds”.
